From publication PMC4393284
These are yes or no findings as the source states them, for the method shown. In cells and extracts the contact can be indirect. Some results given as binding are weak or reduced against the parent protein; the word gives no strength. Sequences can lack the tags named with a protein.

T1: HA-PKCζ (zeta isoform of Protein Kinase C, atypical PKC) (UniProt P09217)
T1 sequence: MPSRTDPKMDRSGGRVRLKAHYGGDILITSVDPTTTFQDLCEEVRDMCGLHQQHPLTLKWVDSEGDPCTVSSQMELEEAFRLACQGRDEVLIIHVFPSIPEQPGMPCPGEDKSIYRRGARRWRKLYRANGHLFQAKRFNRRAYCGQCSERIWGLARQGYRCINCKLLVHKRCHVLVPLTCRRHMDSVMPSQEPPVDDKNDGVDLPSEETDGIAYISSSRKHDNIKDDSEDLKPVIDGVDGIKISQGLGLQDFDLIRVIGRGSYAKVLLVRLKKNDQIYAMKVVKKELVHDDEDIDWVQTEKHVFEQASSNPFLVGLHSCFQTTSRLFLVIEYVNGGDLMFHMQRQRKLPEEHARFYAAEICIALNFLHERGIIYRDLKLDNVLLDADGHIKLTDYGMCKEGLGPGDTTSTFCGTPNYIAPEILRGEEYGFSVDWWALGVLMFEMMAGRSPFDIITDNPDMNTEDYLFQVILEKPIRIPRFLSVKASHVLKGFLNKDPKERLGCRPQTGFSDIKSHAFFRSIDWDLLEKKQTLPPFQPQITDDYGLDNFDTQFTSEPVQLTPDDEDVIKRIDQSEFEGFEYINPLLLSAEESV

T2: FLAG-HDAC6 (histone deacetylase 6) (UniProt Q9Z2V5)
T2 sequence: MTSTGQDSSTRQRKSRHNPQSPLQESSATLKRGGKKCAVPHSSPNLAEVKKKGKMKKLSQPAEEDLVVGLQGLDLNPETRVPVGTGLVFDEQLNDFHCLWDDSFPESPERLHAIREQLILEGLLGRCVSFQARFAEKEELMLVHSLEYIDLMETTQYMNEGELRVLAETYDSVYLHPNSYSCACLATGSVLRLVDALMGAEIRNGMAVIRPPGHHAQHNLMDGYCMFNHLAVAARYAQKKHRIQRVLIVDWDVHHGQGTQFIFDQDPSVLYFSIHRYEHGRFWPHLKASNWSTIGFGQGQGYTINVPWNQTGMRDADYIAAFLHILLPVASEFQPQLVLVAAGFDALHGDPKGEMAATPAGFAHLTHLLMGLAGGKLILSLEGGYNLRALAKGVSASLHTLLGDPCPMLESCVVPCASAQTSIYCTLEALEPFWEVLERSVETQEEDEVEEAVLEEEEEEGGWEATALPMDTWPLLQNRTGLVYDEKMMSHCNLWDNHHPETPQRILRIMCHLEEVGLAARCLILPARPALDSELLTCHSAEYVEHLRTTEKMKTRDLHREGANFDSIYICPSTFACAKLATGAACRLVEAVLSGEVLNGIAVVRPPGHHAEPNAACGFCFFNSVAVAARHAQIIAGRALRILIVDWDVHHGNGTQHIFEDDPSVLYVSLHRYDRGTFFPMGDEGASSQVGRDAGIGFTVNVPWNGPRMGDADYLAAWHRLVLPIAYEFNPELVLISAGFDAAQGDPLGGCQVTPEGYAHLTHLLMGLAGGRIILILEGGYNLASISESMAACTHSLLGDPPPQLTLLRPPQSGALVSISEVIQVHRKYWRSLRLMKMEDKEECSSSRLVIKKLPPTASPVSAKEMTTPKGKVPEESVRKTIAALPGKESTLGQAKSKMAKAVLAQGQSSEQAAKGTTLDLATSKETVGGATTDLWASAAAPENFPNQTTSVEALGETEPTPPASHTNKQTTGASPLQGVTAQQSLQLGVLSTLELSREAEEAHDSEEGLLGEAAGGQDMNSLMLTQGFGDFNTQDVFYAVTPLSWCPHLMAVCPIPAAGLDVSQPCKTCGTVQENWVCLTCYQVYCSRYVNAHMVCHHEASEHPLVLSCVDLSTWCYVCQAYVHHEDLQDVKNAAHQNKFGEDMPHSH


What was measured:
[1] = target: T1, HA-PKCζ (zeta isoform of Protein Kinase C, atypical PKC); assay: co-IP; HA-PKCζ and FLAG-HDAC6 co-transfected into HEK cells; Triton Lysis Buffer (50mM Tris pH 7.5, 150mM NaCl, 0.5% Triton X-100); 500μg lysate with 3μg tag antibody, agarose beads overnight at 4°C; reciprocal immunoprecipitations, Western blot with tag-specific antibodies
[2] = target: T2, FLAG-HDAC6 (histone deacetylase 6); assay: as above

binding [1]	binding [2]	Binder
binds	–	FLAG-HDAC6 (histone deacetylase 6) (enzyme, UniProt Q9Z2V5 1-1149) MTSTGQDSSTRQRKSRHNPQSPLQESSATLKRGGKKCAVPHSSPNLAEVKKKGKMKKLSQPAEEDLVVGLQGLDLNPETRVPVGTGLVFDEQLNDFHCLWDDSFPESPERLHAIREQLILEGLLGRCVSFQARFAEKEELMLVHSLEYIDLMETTQYMNEGELRVLAETYDSVYLHPNSYSCACLATGSVLRLVDALMGAEIRNGMAVIRPPGHHAQHNLMDGYCMFNHLAVAARYAQKKHRIQRVLIVDWDVHHGQGTQFIFDQDPSVLYFSIHRYEHGRFWPHLKASNWSTIGFGQGQGYTINVPWNQTGMRDADYIAAFLHILLPVASEFQPQLVLVAAGFDALHGDPKGEMAATPAGFAHLTHLLMGLAGGKLILSLEGGYNLRALAKGVSASLHTLLGDPCPMLESCVVPCASAQTSIYCTLEALEPFWEVLERSVETQEEDEVEEAVLEEEEEEGGWEATALPMDTWPLLQNRTGLVYDEKMMSHCNLWDNHHPETPQRILRIMCHLEEVGLAARCLILPARPALDSELLTCHSAEYVEHLRTTEKMKTRDLHREGANFDSIYICPSTFACAKLATGAACRLVEAVLSGEVLNGIAVVRPPGHHAEPNAACGFCFFNSVAVAARHAQIIAGRALRILIVDWDVHHGNGTQHIFEDDPSVLYVSLHRYDRGTFFPMGDEGASSQVGRDAGIGFTVNVPWNGPRMGDADYLAAWHRLVLPIAYEFNPELVLISAGFDAAQGDPLGGCQVTPEGYAHLTHLLMGLAGGRIILILEGGYNLASISESMAACTHSLLGDPPPQLTLLRPPQSGALVSISEVIQVHRKYWRSLRLMKMEDKEECSSSRLVIKKLPPTASPVSAKEMTTPKGKVPEESVRKTIAALPGKESTLGQAKSKMAKAVLAQGQSSEQAAKGTTLDLATSKETVGGATTDLWASAAAPENFPNQTTSVEALGETEPTPPASHTNKQTTGASPLQGVTAQQSLQLGVLSTLELSREAEEAHDSEEGLLGEAAGGQDMNSLMLTQGFGDFNTQDVFYAVTPLSWCPHLMAVCPIPAAGLDVSQPCKTCGTVQENWVCLTCYQVYCSRYVNAHMVCHHEASEHPLVLSCVDLSTWCYVCQAYVHHEDLQDVKNAAHQNKFGEDMPHSH
–	binds	HA-PKCζ (zeta isoform of Protein Kinase C, atypical PKC) (enzyme, UniProt P09217 1-592) MPSRTDPKMDRSGGRVRLKAHYGGDILITSVDPTTTFQDLCEEVRDMCGLHQQHPLTLKWVDSEGDPCTVSSQMELEEAFRLACQGRDEVLIIHVFPSIPEQPGMPCPGEDKSIYRRGARRWRKLYRANGHLFQAKRFNRRAYCGQCSERIWGLARQGYRCINCKLLVHKRCHVLVPLTCRRHMDSVMPSQEPPVDDKNDGVDLPSEETDGIAYISSSRKHDNIKDDSEDLKPVIDGVDGIKISQGLGLQDFDLIRVIGRGSYAKVLLVRLKKNDQIYAMKVVKKELVHDDEDIDWVQTEKHVFEQASSNPFLVGLHSCFQTTSRLFLVIEYVNGGDLMFHMQRQRKLPEEHARFYAAEICIALNFLHERGIIYRDLKLDNVLLDADGHIKLTDYGMCKEGLGPGDTTSTFCGTPNYIAPEILRGEEYGFSVDWWALGVLMFEMMAGRSPFDIITDNPDMNTEDYLFQVILEKPIRIPRFLSVKASHVLKGFLNKDPKERLGCRPQTGFSDIKSHAFFRSIDWDLLEKKQTLPPFQPQITDDYGLDNFDTQFTSEPVQLTPDDEDVIKRIDQSEFEGFEYINPLLLSAEESV
